# Measurements taken from PubChem BioAssay AID1261 (University of Pittsburgh Molecular Library Screening Center, 2008).
# The list shows a part of the results. The main result of the screen is listed elsewhere. These columns were measured beside it and carry no call.
# Test system: Tyrosine-protein phosphatase YopH [Yersinia enterocolitica]
# Test: potency against Yersinia YopH phosphatase – biochemical, 10-point dose range, dose response (AID 1261)
# Details: YopH phosphatase enzymatic assay, IC50, 3 runs, at 50 µM, stronger effect = higher value
row,Compound,inhibition
1,O=C1C=CC(=O)C(C2=C3C(=O)N(CCc4ccccc4)CC(=O)N3CCC2)=C1,39.9%
2,COc1ccc(N=CC2=C(Nc3ccc(OC)cc3)c3c(C)nn(-c4ccccn4)c3CC2)cc1,48.7%
3,CCN1c2ccccc2N(C)C1(C)c1ccccc1 (stereo unspecified),47.9%
4,CN1c2ccccc2N(C)C1(C)c1ccccc1,45.4%
5,COc1ccccc1NC1=C(N2CCCCC2)C(=O)c2ccccc2C1=O,49.4%
6,O=C1C2=C(c3ccccc31)[N+](=O)[C@@H]1CCCC[C@@H]1N2[O-],47.2%
